Among all 220,000 compounds or so, about 2,400 (1.1%) were called active. This list was built around the results that the source calls inconclusive (neither active nor inactive); the mix of calls is not that of the screen. Calls come from the whole dose curve; as a rule, active = well fitted inhibition curve with a large enough effect; inconclusive = small, poorly fitted or top-dose-only effect, or effect the other way; inactive = no such curve, though single readings can be large or run the other way. Where the call is inconclusive, the potency comes from a doubtful curve fit.
Test: qHTS Multiplex Assay to Identify Dual Action Probes in a Cell Model of Huntington: Aggregate Formation (GFP); note: nearly all actives have a fitted effect of over 60% in size
Conditions: PC12 HttQ103-GFP aggregates, Acumen cytometry, 40 h; activity change, negative = inhibition: at 46.1 µM (top of the series) unless noted
Method in brief: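 Quantitative HTS on tebufenozide-induced (100 nM) PC12 cells stably expressing polyQ103 Huntingtin exon 1–GFP. Reduction of bright GFP aggregates, detected by laser scanning cytometry after lysis, identified actives across the titration.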
% is set by controls: 0 for no effect and ±100 for the full control effect; potency is the fitted concentration of half-maximal effect.

SMILES | Potency | activity change, negative = inhibition
COc1cccc(NC(=O)COC(=O)Cc2ccccc2[N+](=O)[O-])c1 | inactive | 
CC1=NN(c2ccc(Cl)cc2)C(=O)/C1=C\c1cccn1-c1ccc(S(N)(=O)=O)cc1 | inconclusive: 3.16 µM [inhibitor, partial curve] | 
CN1CCN(c2nc(N3CCN(CCO)CC3)nc3ccccc23)CC1 | inconclusive: 5.62 µM [inhibitor, single point] | 
Cc1ccc(NC(=O)Cc2ccc(Cl)c(Cl)c2)cc1S(=O)(=O)N(C)C | inconclusive: 22.4 µM [inhibitor, single point] | 
O=C1CC(SCc2nc3ccccc3[nH]2)C(=O)N1c1cccc(F)c1 (stereo not given) | active: 3.98 µM | 
Cc1ccc(C(=O)N2CCC(C(N)=O)CC2)cc1C | inactive | 
CCOC(=O)C1=C(CC)OC(N)=C(C#N)C1c1ccc(NC(C)=O)cc1 (stereo not given) | inconclusive: 22.4 µM [activator, single point] | 
O=C(NCc1cccc(CNC(=O)c2ccco2)c1)c1ccco1 | inactive | 
COCc1cc(CN2CCCC2)c(O)c2ncccc12 | inconclusive: 2.51 µM [inhibitor, full curve] | 
CC(C)(C)C(=O)/C=c1\s/c(=C\c2ccc(-c3ccc([N+](=O)[O-])cc3)o2)c(=O)n1CC(=O)NC(N)=O | inconclusive: 2.82 µM [inhibitor, partial curve] | 
CC(=O)Nc1ccc(S(=O)(=O)NCCOc2ccc(Cl)cc2C)cc1 | inconclusive: 11.2 µM [inhibitor, partial curve] | 
COc1c(OC(C)=O)ccc(/C=C/c2ccc3ccccc3n2)c1[N+](=O)[O-] | inconclusive: 20 µM [inhibitor, single point] | 
CC(C)CCC1(CCNC(C)c2cccs2)CCOC(C)(C)C1 (stereo not given) |  | inactive: 0% [at 9.22 µM]
CN1c2ccccc2C(O)=C(C(=S)Nc2ccc(F)c(Cl)c2)S1(=O)=O | inconclusive: 31.6 µM [inhibitor, single point] | 
N#Cc1c2n(c3c(=O)n(Cc4ccccc4)cnc13)CCCC2 | inconclusive: 1.78 µM [activator, full curve, poor fit] | 
Nc1nc(-c2ccc3c(c2)CCC(=O)N3)cs1 | inconclusive: 20 µM [activator, partial curve] | 
O=C(Nc1ccccc1)Nc1ncc([N+](=O)[O-])s1 | active: 11.2 µM | 
CCc1nnc2n1N=C(c1ccc(-c3cc(Cl)ccc3Cl)o1)CS2 | inconclusive: 35.5 µM [activator, single point] | 
Cc1ccc(NC(=O)/C=C/c2ccc([N+](=O)[O-])s2)cc1 | inconclusive: 2.24 µM [activator, full curve] | 
CC1(C)OC2OC(C(=O)N/N=C/c3cc(Br)ccc3O)C3OC(C)(C)OC3C2O1 (stereo not given) | active: 10 µM | 
COC(=O)c1ccccc1Sc1ncnc2onc(C)c12 | inconclusive: 35.5 µM [activator, partial curve, poor fit] | 
COc1ccc(C(=O)NCc2nnc(SCC(=O)Nc3cccc(F)c3)o2)cc1 | inactive | 
COc1ccc2[nH]c(=O)c(COC(=O)c3ccco3)cc2c1 | inconclusive: 3.98 µM [inhibitor, single point] | 
NC(=O)/C=C/C(=O)Nc1ccc(Cl)cc1 | inconclusive: 35.5 µM [inhibitor, single point] | 

A second format for part of the listing above:

| SMILES | Potency | activity change, negative = inhibition |
| --- | --- | --- |
| CC1=NN(c2ccc(Cl)cc2)C(=O)/C1=C\c1cccn1-c1ccc(S(N)(=O)=O)cc1 | inconclusive: 3.16 µM [inhibitor, partial curve] |  |
| CN1CCN(c2nc(N3CCN(CCO)CC3)nc3ccccc23)CC1 | inconclusive: 5.62 µM [inhibitor, single point] |  |

Continuation.

SMILES | Potency | activity change, negative = inhibition
Cc1ccc2nc(N/C(=N/S(=O)(=O)c3ccc(F)cc3)c3ccccc3)sc2c1 | inconclusive: 14.1 µM [inhibitor, single point] | 
NS(=O)(=O)c1ccc(NC(=O)CN2CCCC2)cc1 | inactive | 
COc1cc2c(cc1OC)-c1cc(NC3CCCCCC3)nc(=O)n1CC2 | inconclusive: 10 µM [activator, partial curve] | 
CCOc1cc(/C=N/N2C(=O)NC3(CCCCC3)C2=O)cc(Br)c1O | inactive | 
COc1ccc(C(=O)Nc2cccc3c2C(=O)NC3=O)cc1S(=O)(=O)N1CCOCC1 | inactive | 
CC(c1ccco1)N(C(=O)c1ccccc1NS(=O)(=O)c1cccc([N+](=O)[O-])c1)c1ccccn1 (stereo not given) | inconclusive: 35.5 µM [inhibitor, single point] | 
O=S(=O)(Nc1ccc(-c2csc(-c3ccccc3)n2)cc1)c1ccccc1 | inactive | 
O=C(CSc1ccncc1)Nc1ccc2ccccc2c1 | inconclusive: 14.1 µM [inhibitor, single point] | 
CC(C)C[C@H](NC(=O)OC(C)(C)C)C(=O)N1CCC(C(=O)N[C@@H](Cc2ccccc2)C(=O)O)CC1 | inactive | 
CCn1c(=O)cc(SCC(=O)Nc2cc(OC)c(OC)c(OC)c2)c2ccccc21 | inconclusive: 28.2 µM [activator, single point] | 
Cc1ccc(CN2CCN(/N=C/c3cccs3)CC2)cc1 | inconclusive: 14.1 µM [activator, single point] | 
COc1ccc(-c2nnc(SCC(=O)N(C)C3CCS(=O)(=O)C3)n2N)cc1OC (stereo not given) | inconclusive: 3.55 µM [activator, full curve, poor fit] | 
CN(C(=O)c1cccc(C#N)c1)c1nnc(-c2ccccn2)s1 | inconclusive: 0.794 µM [inhibitor, single point] | 
CC(C)c1ccc2c(c1)C1Cc3ccccc3C1N2 (stereo not given) | inconclusive: 2.82 µM [inhibitor, full curve, poor fit] | 
CCc1ccc(/C(C)=N\Nc2ccc([N+](=O)[O-])cc2)cc1 | inactive | 
COC(=O)C1=C(CSCc2ccccc2)NC(=O)NC1c1cc(C)ccc1C (stereo not given) | inconclusive: 3.98 µM [inhibitor, single point] | 
Cc1cc(NC(=O)CSc2nnc(N)s2)c([N+](=O)[O-])cc1C | inactive | 
Cc1ccc(-c2csc(N(Cc3ccccc3)C(=O)COc3ccccc3)n2)cc1 | inconclusive: 2.82 µM [activator, full curve, poor fit] | 
CC(C)CC(=O)NC(c1ccccc1Cl)c1c(O)ccc2ccccc12 (stereo not given) | inconclusive: 35.5 µM [inhibitor, single point] | 
CCCCC(=O)c1c(O)c2ccccc2oc1=O | inconclusive: 35.5 µM [inhibitor, single point] | 
COc1ccccc1-c1nc(C(F)(F)F)c(OC)o1 | inconclusive: 25.1 µM [activator, single point] | 
CCOc1ccc(/C=C/C(O)=C2/C(=O)NC3(C)CC2c2ccccc2O3)cc1OC (stereo not given) | inconclusive: 6.31 µM [activator, single point] | 
Cc1ccc(C(c2nnnn2CCc2ccccc2)N2CCSCC2)cc1 (stereo not given) | inconclusive: 35.5 µM [inhibitor, single point] | 
CC(=O)c1ccc(NC(=O)Nc2ccc(Cl)cc2)cc1 | inconclusive: 15.8 µM [inhibitor, single point] | 

SMILES | Potency | activity change, negative = inhibition
CC(NC(=O)CCOc1ccccc1)c1ccccc1 (stereo not given) | inactive | 
N#Cc1ccc(N2Cc3ccccc3C2=NC(=O)c2cccs2)cc1 | inconclusive: 6.31 µM [inhibitor, single point] | 
CCOc1ccc(-n2c(-c3ccc(Cl)cc3)c[n+]3c2SCC3)cc1 | inconclusive: 10 µM [inhibitor, partial curve] | 
CCOc1ccc(C(=O)/C=C/c2cc(OC)c(OC)c(OC)c2)cc1 |  | inactive: -4.92% [at 9.22 µM]
CCC(C)(C)NC(=O)CCCSc1nc2ccccc2s1 | inconclusive: 35.5 µM [inhibitor, single point] | 
C=COCCNC(=O)Nc1ccc(Cl)c(Cl)c1 | inactive | 
CCn1nc(C)cc1C(=O)Sc1cccc(Br)c1 |  | inactive: -0.316% [at 9.22 µM]
CCOC(=O)N1CCN(CCC(=O)Nc2ccc(C)c(Br)c2)CC1 | inconclusive: 35.5 µM [inhibitor, single point] | 
Brc1ccc(CN2C3=NCCCN3c3ccccc32)cc1 | inconclusive: 3.16 µM [inhibitor, single point] | 
O=C(Nc1cc(Sc2nc3ccccc3s2)cc([N+](=O)[O-])c1)c1cccc(F)c1F | inconclusive: 35.5 µM [inhibitor, single point] | 
COc1ccc2c(c1)C(C)=CC(C)(C)N2S(=O)(=O)c1ccc(C)cc1 |  | inactive: -35.5% [at 9.22 µM]
N[C@@H](Cc1ccc(O)c(I)c1)C(=O)O | inactive | 
Cc1ccc(C(C)(C)C)c(OCCCCN2CCCC2)c1 | inconclusive: 35.5 µM [inhibitor, single point] | 
COC(=O)/C=C/C(=O)Nc1ccc(O)c(Cl)c1 | inactive | 
O=C(/C=C/c1ccccc1)NC(=S)NNC(=O)c1cnccn1 | inconclusive: 5.62 µM [inhibitor, single point] | 
Cn1c(NCCc2ccccc2)cc(=O)n(C)c1=O | inactive | 
COc1ccc(/C=N/NC(=O)CCn2cnc(-c3ccccc3)c2-c2ccccc2)cc1 | inconclusive: 31.6 µM [activator, single point] | 
CCCn1c(=O)c(C(=O)NNS(=O)(=O)c2ccc(C)cc2)c(O)c2ccccc21 | inconclusive: 22.4 µM [inhibitor, single point] | 
O=C(Nc1ccccc1)/C(=C/c1ccccc1)c1ccccc1 | inconclusive: 7.94 µM [inhibitor, partial curve] | 
Cc1[nH]nc2c1-c1nc3ccccc3nc1C(C)(C)C2 | inconclusive: 15.8 µM [inhibitor, single point] | 
COc1ccc(C)cc1NC(=O)c1ccc(S(=O)(=O)N2CCOCC2)cc1 | inactive | 
O=C(Nc1nc(-c2cccs2)cs1)c1cccc(S(=O)(=O)N2CCCCC2)c1 | inconclusive: 12.6 µM [inhibitor, single point] | 

Pulled by compound from the list above:
SMILES | Potency | activity change, negative = inhibition
N[C@@H](Cc1ccc(O)c(I)c1)C(=O)O | inactive | 
Brc1ccc(CN2C3=NCCCN3c3ccccc32)cc1 | inconclusive: 3.16 µM [inhibitor, single point] | 
COc1ccc(/C=N/NC(=O)CCn2cnc(-c3ccccc3)c2-c2ccccc2)cc1 | inconclusive: 31.6 µM [activator, single point] | 
Cn1c(NCCc2ccccc2)cc(=O)n(C)c1=O | inactive | 
